# According to article PMC11569202:
# Sequences of proteins named here, by UniProt entry; tags and fusion partners are left off.
# UniProt P35579: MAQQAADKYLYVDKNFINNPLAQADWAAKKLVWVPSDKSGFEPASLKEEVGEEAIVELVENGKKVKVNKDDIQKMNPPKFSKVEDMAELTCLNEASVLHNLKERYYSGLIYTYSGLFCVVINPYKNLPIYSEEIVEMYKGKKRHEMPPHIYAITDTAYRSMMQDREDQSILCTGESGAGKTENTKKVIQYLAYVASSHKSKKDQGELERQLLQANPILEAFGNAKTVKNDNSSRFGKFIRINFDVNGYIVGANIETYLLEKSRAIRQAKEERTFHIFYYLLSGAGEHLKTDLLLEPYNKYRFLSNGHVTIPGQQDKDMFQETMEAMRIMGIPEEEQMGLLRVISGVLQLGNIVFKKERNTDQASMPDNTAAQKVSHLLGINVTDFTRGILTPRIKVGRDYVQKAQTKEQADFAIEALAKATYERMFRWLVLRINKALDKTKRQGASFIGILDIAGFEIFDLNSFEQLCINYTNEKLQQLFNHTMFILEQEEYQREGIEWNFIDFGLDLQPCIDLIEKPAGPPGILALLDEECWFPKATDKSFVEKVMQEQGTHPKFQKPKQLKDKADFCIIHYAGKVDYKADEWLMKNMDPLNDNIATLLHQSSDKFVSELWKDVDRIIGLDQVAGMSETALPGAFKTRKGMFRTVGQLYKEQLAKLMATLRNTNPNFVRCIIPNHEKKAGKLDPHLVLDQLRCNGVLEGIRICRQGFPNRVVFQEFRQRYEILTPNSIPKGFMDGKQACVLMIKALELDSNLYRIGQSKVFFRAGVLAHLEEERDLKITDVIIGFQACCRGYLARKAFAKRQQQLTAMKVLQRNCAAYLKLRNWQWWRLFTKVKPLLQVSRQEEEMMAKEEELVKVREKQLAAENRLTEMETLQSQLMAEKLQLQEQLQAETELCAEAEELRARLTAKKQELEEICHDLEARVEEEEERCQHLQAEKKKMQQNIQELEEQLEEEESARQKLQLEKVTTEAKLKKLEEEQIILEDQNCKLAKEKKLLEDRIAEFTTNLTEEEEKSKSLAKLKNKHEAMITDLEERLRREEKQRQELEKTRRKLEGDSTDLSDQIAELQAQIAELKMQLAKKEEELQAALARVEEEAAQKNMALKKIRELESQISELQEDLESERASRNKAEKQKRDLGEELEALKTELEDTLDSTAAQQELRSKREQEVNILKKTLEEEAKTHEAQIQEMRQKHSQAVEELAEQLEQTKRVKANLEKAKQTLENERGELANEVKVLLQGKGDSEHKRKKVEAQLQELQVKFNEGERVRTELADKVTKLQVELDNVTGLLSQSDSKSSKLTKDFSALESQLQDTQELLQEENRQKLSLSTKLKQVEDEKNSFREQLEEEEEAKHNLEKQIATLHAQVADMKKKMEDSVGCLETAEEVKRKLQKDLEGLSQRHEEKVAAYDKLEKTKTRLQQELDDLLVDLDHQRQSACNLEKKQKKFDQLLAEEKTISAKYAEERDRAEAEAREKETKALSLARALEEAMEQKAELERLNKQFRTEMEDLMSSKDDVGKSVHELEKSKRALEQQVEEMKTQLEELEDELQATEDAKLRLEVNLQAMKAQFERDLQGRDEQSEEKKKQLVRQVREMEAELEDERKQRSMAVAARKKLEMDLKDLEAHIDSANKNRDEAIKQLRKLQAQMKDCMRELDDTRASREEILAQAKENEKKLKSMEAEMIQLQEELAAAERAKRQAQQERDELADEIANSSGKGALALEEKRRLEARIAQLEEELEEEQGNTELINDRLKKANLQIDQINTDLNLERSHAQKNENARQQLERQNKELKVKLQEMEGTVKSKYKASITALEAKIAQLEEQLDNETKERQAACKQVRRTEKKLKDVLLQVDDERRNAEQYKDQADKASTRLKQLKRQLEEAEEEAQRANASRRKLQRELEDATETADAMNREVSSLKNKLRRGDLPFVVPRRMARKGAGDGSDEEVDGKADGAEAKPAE
# No constants are given. Whether binding was seen depends on the method and setting. Binding seen in cells or lysates may run through a third protein. Some results given as binding are weak or reduced against the parent protein; the word gives no strength. Sequences can lack the tags named with a protein.
# Molecular target: T1, Flag-FATS (fragile site-associated tumor suppressor) (UniProt Q96M02)
# T1 sequence: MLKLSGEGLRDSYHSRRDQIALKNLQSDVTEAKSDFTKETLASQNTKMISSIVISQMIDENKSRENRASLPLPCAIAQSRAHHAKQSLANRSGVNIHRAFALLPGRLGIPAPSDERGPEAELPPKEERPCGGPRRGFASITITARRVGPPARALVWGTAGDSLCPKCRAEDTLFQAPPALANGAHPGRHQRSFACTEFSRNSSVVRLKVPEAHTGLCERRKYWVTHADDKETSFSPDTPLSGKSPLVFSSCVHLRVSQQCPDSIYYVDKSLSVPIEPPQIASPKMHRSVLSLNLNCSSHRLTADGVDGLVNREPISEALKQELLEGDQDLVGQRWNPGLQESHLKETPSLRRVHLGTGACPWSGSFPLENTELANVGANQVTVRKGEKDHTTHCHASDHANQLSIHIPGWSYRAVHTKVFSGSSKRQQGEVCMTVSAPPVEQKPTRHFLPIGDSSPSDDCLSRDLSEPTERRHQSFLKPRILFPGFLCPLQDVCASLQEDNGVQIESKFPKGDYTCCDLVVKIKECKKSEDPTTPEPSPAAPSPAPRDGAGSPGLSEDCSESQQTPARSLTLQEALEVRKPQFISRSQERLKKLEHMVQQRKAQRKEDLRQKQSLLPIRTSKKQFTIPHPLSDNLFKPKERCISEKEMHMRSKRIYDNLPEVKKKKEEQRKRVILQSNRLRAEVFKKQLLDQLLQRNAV
# Assay: co-IP; MCF-7 and MDA-MB-231 cells transfected with Flag-FATS or empty plasmid; RIPA lysates (1 mg total protein) incubated overnight at 4 °C with beads conjugated to Flag, FATS or control IgG antibodies; western blot for MYH9
substance,measurement,value
myosin heavy chain 9 (MYH9) (from UniProt P35579 1-1960),binding,binds
